PubChem BioAssay AID1224830 | NIAID | 2016

Test: 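Genes whose knock-down alters the TNF-alpha reporter response to LPS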 (primary screen)
System: human THP-1 monocytic leukaemia cells, TNF dual-luciferase reporter clone, PMA-differentiated to macrophage-like cells
Knock-down reagent: siRNA pool against human genes, 50 nM
Time to read-out: LPS for 4 h, given about 3 days after siRNA transfection
Treatment: bacterial LPS (TLR4 ligand), 10 ng/ml
Measured: 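TNF firefly reporter luminescence divided by renilla, normalised to the plate median, then turned into a robust z-score for each replicate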
Scale: TNF reporter robust z-score: higher = stronger TNF reporter response to LPS
Call rule: 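a well is active when its z-score exceeds 2.8 or falls below -1.5; control wells carry no call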
Here is an unselected part of about 18,000 reagents. Of all reagents, about 2,900 (16%) were called active. 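Calls are made per well; low scores hint the gene aids the LPS response, high scores that it dampens it.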 Reagents against one gene are numbered here. Repeated entries: four replicate wells of each siRNA pool. No sequences are given here.

The first 2 entries, ahead of the listing:
no.	Gene	reagent	TNF reporter robust z-score	Outcome
1	MICAL2	1	-0.39	inactive
2	MICAL2	1	0.57	inactive

Main list, from the first entry:
no.	Gene	reagent	TNF reporter robust z-score	Outcome
1	MICAL2	1	-0.39	inactive
2	MICAL2	1	0.57	inactive
3	MICAL2	1	0.86	inactive
4	MICAL2	1	-0.56	inactive
5	MICAL2	2	-0.33	inactive
6	MICAL2	2	2.65	inactive
7	MICAL2	2	2.7	inactive
8	MICAL2	2	2.43	inactive
9	LAIR2	1	2.39	inactive
10	LAIR2	1	1.89	inactive
11	LAIR2	1	0.34	inactive
12	LAIR2	1	2.13	inactive
13	ADNP	1	-0.76	inactive
14	ADNP	1	1.26	inactive
15	ADNP	1	0.66	inactive
16	ADNP	1	0.28	inactive
17	ACTRT1	1	-0.12	inactive
18	ACTRT1	1	-0.63	inactive
19	ACTRT1	1	-0.84	inactive
20	ACTRT1	1	-0.33	inactive
21	ZNF222	1	0.95	inactive
22	ZNF222	1	1.05	inactive
23	ZNF222	1	1.24	inactive
24	ZNF222	1	0.45	inactive
25	ZNF33B	1	-0.94	inactive
26	ZNF33B	1	-0.91	inactive
27	ZNF33B	1	-0.86	inactive
28	ZNF33B	1	-0.9	inactive
29	MRPL50	1	1.02	inactive
30	MRPL50	1	1.94	inactive
31	MRPL50	1	2.51	inactive
32	MRPL50	1	1.35	inactive
33	OR10J3	1	-0.09	inactive
34	OR10J3	1	0.56	inactive
35	OR10J3	1	-0.32	inactive
36	OR10J3	1	0.19	inactive
37	KERA	1	-0.04	inactive
38	KERA	1	0.22	inactive
39	KERA	1	-0.2	inactive
40	KERA	1	0.15	inactive
41	EIF2AK3	1	-0.75	inactive
42	EIF2AK3	1	0.97	inactive
43	EIF2AK3	1	-0.86	inactive
44	EIF2AK3	1	-0.08	inactive
45	TSSK2	1	-0.69	inactive
46	TSSK2	1	1.47	inactive
47	TSSK2	1	-0.65	inactive
48	TSSK2	1	-0.63	inactive
